Test results taken from article PMC4055408.
No constants are given. Whether binding was seen depends on the method and setting. For some of these results: Binding seen in cells or lysates may run through a third protein.

Tests used:
[1] = molecular target: TFII-I^270–667 fragment (human) (UniProt P78347); test: SEC; single purified TFII-I fragments fractionated on Superdex 200; apparent molecular mass against standards; monomer or homodimer; both purified
[2] = molecular target: TFII-I, endogenous (human (endogenous in 293T and U2OS)) (UniProt P78347); test: co-IP; U2OS cells, untreated or UV 60 J/m^2, fixed with 0.25% formaldehyde; anti-PCNA IP or anti-TFII-I IP; siControl or siTFII-I with Myc-TFII-I plasmids; cross-links reversed, immunoblot
[3] = molecular target: TFII-I Δ90 (TFII-I mutant protein lacking the first 90 residues) (human) (UniProt P78347); test: co-IP; HeLa Tet-On cells transfected with differentially tagged TFII-I plasmids; IgG IP and anti-Myc IP, immunoblot

| binding [2] | Binder | also measured |
| --- | --- | --- |
| – | TFII-I^270–667 fragment (domain or fragment, UniProt P78347 270-667) SKPLQGSHHSSEGNEGTEMEVPAEDSTQHVPSETSEDPEVEVTIEDDDYSPPSKRPKANELPQPPVPEPANAGKRKVREFNFEKWNARITDLRKQVEELFERKYAQAIKAKGPVTIPYPLFQSHVEDLYVEGLPEGIPFRRPSTYGIPRLERILLAKERIRFVIKKHELLNSTREDLQLDKPASGVKEEWYARITKLRKMVDQLFCKKFAEALGSTEAKAVPYQKFEAHPNDLYVEGLPENIPFRSPSWYGIPRLEKIIQVGNRIKFVIKRPELLTHSTTEVTQPRTNTPVKEDWNVRITKLRKQVEEIFNLKFAQALGLTEAVKVPYPVFESNPEFLYVEGLPEGIPFRSPTWFGIPRLERIVRGSNKIKFVVKKPELVISYLPPGMASKINTKALQ | binding [1]: no binding |
| no binding | Pol η, endogenous (enzyme, UniProt Q9Y253 1-713) MATGQDRVVALVDMDCFFVQVEQRQNPHLRNKPCAVVQYKSWKGGGIIAVSYEARAFGVTRSMWADDAKKLCPDLLLAQVRESRGKANLTKYREASVEVMEIMSRFAVIERASIDEAYVDLTSAVQERLQKLQGQPISADLLPSTYIEGLPQGPTTAEETVQKEGMRKQGLFQWLDSLQIDNLTSPDLQLTVGAVIVEEMRAAIERETGFQCSAGISHNKVLAKLACGLNKPNRQTLVSHGSVPQLFSQMPIRKIRSLGGKLGASVIEILGIEYMGELTQFTESQLQSHFGEKNGSWLYAMCRGIEHDPVKPRQLPKTIGCSKNFPGKTALATREQVQWWLLQLAQELEERLTKDRNDNDRVATQLVVSIRVQGDKRLSSLRRCCALTRYDAHKMSHDAFTVIKNCNTSGIQTEWSPPLTMLFLCATKFSASAPSSSTDITSFLSSDPSSLPKVPVTSSEAKTQGSGPAVTATKKATTSLESFFQKAAERQKVKEASLSSLTAPTQAPMSNSPSKPSLPFQTSQSTGTEPFFKQKSLLLKQKQLNNSSVSSPQQNPWSNCKALPNSLPTEYPGCVPVCEGVSKLEESSKATPAEMDLAHNSQSMHASSASKSVLEVTQKATPNPSLLAAEDQVPCEKCGSLVPVWDMPEHMDYHFALELQKSFLQPHSSNPQVVSAVSHQGKRNPKSPLACTNKRPRPEGMQTLESFFKPLTH | – |
| no binding | Pol ι, endogenous (enzyme, UniProt Q9UNA4 1-740) MEKLGVEPEEEGGGDDDEEDAEAWAMELADVGAAASSQGVHDQVLPTPNASSRVIVHVDLDCFYAQVEMISNPELKDKPLGVQQKYLVVTCNYEARKLGVKKLMNVRDAKEKCPQLVLVNGEDLTRYREMSYKVTELLEEFSPVVERLGFDENFVDLTEMVEKRLQQLQSDELSAVTVSGHVYNNQSINLLDVLHIRLLVGSQIAAEMREAMYNQLGLTGCAGVASNKLLAKLVSGVFKPNQQTVLLPESCQHLIHSLNHIKEIPGIGYKTAKCLEALGINSVRDLQTFSPKILEKELGISVAQRIQKLSFGEDNSPVILSGPPQSFSEEDSFKKCSSEVEAKNKIEELLASLLNRVCQDGRKPHTVRLIIRRYSSEKHYGRESRQCPIPSHVIQKLGTGNYDVMTPMVDILMKLFRNMVNVKMPFHLTLLSVCFCNLKALNTAKKGLIDYYLMPSLSTTSRSGKHSFKMKDTHMEDFPKDKETNRDFLPSGRIESTRTRESPLDTTNFSKEKDINEFPLCSLPEGVDQEVFKQLPVDIQEEILSGKSREKFQGKGSVSCPLHASRGVLSFFSKKQMQDIPINPRDHLSSSKQVSSVSPCEPGTSGFNSSSSSYMSSQKDYSYYLDNRLKDERISQGPKEPQGFHFTNSNPAVSAFHSFPNLQSEQLFSRNHTTDSHKQTVATDSHEGLTENREPDSVDEKITFPSDIDPQVFYELPEAVQKELLAEWKRAGSDFHIGHK | – |
| – | TFII-I Δ90 (TFII-I mutant protein lacking the first 90 residues) (domain or fragment, UniProt P78347 91-998) HKMKSTTQANRMSVDAVEIETLRKTVEDYFCFCYGKALGKSTVVPVPYEKMLRDQSAVVVQGLPEGVAFKHPENYDLATLKWILENKAGISFIIKRPFLEPKKHVGGRVMVTDADRSILSPGGSCGPIKVKTEPTEDSGISLEMAAVTVKEESEDPDYYQYNIQAGPSETDDVDEKQPLSKPLQGSHHSSEGNEGTEMEVPAEDSTQHVPSETSEDPEVEVTIEDDDYSPPSKRPKANELPQPPVPEPANAGKRKVREFNFEKWNARITDLRKQVEELFERKYAQAIKAKGPVTIPYPLFQSHVEDLYVEGLPEGIPFRRPSTYGIPRLERILLAKERIRFVIKKHELLNSTREDLQLDKPASGVKEEWYARITKLRKMVDQLFCKKFAEALGSTEAKAVPYQKFEAHPNDLYVEGLPENIPFRSPSWYGIPRLEKIIQVGNRIKFVIKRPELLTHSTTEVTQPRTNTPVKEDWNVRITKLRKQVEEIFNLKFAQALGLTEAVKVPYPVFESNPEFLYVEGLPEGIPFRSPTWFGIPRLERIVRGSNKIKFVVKKPELVISYLPPGMASKINTKALQSPKRPRSPGSNSKVPEIEVTVEGPNNNNPQTSAVRTPTQTNGSNVPFKPRGREFSFEAWNAKITDLKQKVENLFNEKCGEALGLKQAVKVPFALFESFPEDFYVEGLPEGVPFRRPSTFGIPRLEKILRNKAKIKFIIKKPEMFETAIKESTSSKSPPRKINSSPNVNTTASGVEDLNIIQVTIPDDDNERLSKVEKARQLREQVNDLFSRKFGEAIGMGFPVKVPYRKITINPGCVVVDGMPPGVSFKAPSYLEISSMRRILDSAEFIKFTVIRPFPGLVINNQLVDQSESEGPVIQESAEPSQLEVPATEEIKETDGSSQIKQEPDPTW | binding [3]: no binding |
